Data as given in PubChem BioAssay AID1259254 (NCATS, 2017)
Test: 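Finding genes that stop cells copying their DNA twice in one cycle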 (primary screen). System: human HCT116 colorectal cancer cells. Knock-down reagent: single siRNA against human genes. Time to read-out: 3 days. Detection: 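Imaged Hoechst DNA stain sorts each cell into a cycle phase by DNA amount; per plate, G2 fraction set to 0% for non-targeting and 100% for GMNN siRNA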. Scale: G2 robust z-score and G2 cells, % of GMNN control: higher = more G2 cells, more excess DNA replication. Hit rule: 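An siRNA counts as active if its G2 robust z-score lies at least 5 MADs above the screen median; here such calls match roughly 38% of GMNN control or more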.
Here is one part, drawn at random, of about 59,000 reagents tested. About 1,550 of all reagents (2.6%) were called active. 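G2 share is only a proxy for re-replication; each gene was hit by three separate siRNAs, and active genes were retested.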 Reagents against one gene are numbered here. Not all columns of the deposit are shown. The record does not give: the amount of reagent.

gene	siRNA no.	G2 robust z-score	G2 cells, % of GMNN control	outcome
AKT2 (AKT serine/threonine kinase 2)	1	-0.838	-2.93	inactive
AKT2 (AKT serine/threonine kinase 2)	2	-1.01	-4.17	inactive
AKT2 (AKT serine/threonine kinase 2)	3	0.256	4.77	inactive
SEPTIN11 (septin 11)	1	0.09	3.6	inactive
SEPTIN11 (septin 11)	2	-0.0845	2.37	inactive
SEPTIN11 (septin 11)	3	3.75	29.4	inactive
IARS2 (isoleucyl-tRNA synthetase 2, mitochondrial)	1	0.102	3.68	inactive
IARS2 (isoleucyl-tRNA synthetase 2, mitochondrial)	2	-0.411	0.0764	inactive
IARS2 (isoleucyl-tRNA synthetase 2, mitochondrial)	3	0.182	4.25	inactive
TLK1 (tousled like kinase 1)	1	1.35	12.4	inactive
TLK1 (tousled like kinase 1)	2	0.244	4.69	inactive
TLK1 (tousled like kinase 1)	3	3.34	26.5	inactive
RBM22 (RNA binding motif protein 22)	1	-0.101	2.26	inactive
RBM22 (RNA binding motif protein 22)	2	0.725	8.07	inactive
RBM22 (RNA binding motif protein 22)	3	-0.371	0.358	inactive
ASCC2 (activating signal cointegrator 1 complex subunit 2)	1	2.18	18.3	inactive
ASCC2 (activating signal cointegrator 1 complex subunit 2)	2	0.0257	3.15	inactive
ASCC2 (activating signal cointegrator 1 complex subunit 2)	3	0.00897	3.03	inactive
NECTIN1 (nectin cell adhesion molecule 1)	1	2.45	20.2	inactive
NECTIN1 (nectin cell adhesion molecule 1)	2	0.00425	3	inactive
NECTIN1 (nectin cell adhesion molecule 1)	3	0.489	6.41	inactive
TFR2 (transferrin receptor 2)	1	-0.157	1.86	inactive
TFR2 (transferrin receptor 2)	2	0.49	6.41	inactive
TFR2 (transferrin receptor 2)	3	2.42	20	inactive
FKBP2 (FKBP prolyl isomerase 2)	1	2.99	24	inactive
FKBP2 (FKBP prolyl isomerase 2)	2	4.95	37.8	inactive
FKBP2 (FKBP prolyl isomerase 2)	3	-0.293	0.902	inactive
SNX1 (sorting nexin 1)	1	0.376	5.61	inactive
SNX1 (sorting nexin 1)	2	0.927	9.49	inactive
SNX1 (sorting nexin 1)	3	0.447	6.11	inactive
WFDC5 (WAP four-disulfide core domain 5)	1	-0.679	-1.81	inactive
WFDC5 (WAP four-disulfide core domain 5)	2	-1.24	-5.77	inactive
WFDC5 (WAP four-disulfide core domain 5)	3	-0.165	1.81	inactive
SHOC2 (SHOC2 leucine rich repeat scaffold protein)	1	1.28	12	inactive
SHOC2 (SHOC2 leucine rich repeat scaffold protein)	2	-1.35	-6.53	inactive
SHOC2 (SHOC2 leucine rich repeat scaffold protein)	3	2.25	18.8	inactive
SDHAF1 (succinate dehydrogenase complex assembly factor 1)	1	-0.074	2.45	inactive
SDHAF1 (succinate dehydrogenase complex assembly factor 1)	2	-0.139	1.99	inactive
SDHAF1 (succinate dehydrogenase complex assembly factor 1)	3	0.655	7.57	inactive
RUBCN (rubicon autophagy regulator)	1	-0.602	-1.27	inactive
RUBCN (rubicon autophagy regulator)	2	1.14	11	inactive
RUBCN (rubicon autophagy regulator)	3	3.25	25.8	inactive
MYO9A (myosin IXA)	1	2.55	20.9	inactive
MYO9A (myosin IXA)	2	-0.384	0.268	inactive
MYO9A (myosin IXA)	3	-0.68	-1.82	inactive
LIAS (lipoic acid synthetase)	1	-1.07	-4.56	inactive
LIAS (lipoic acid synthetase)	2	-0.755	-2.34	inactive
LIAS (lipoic acid synthetase)	3	1.52	13.7	inactive
RESF1 (retroelement silencing factor 1)	1	-0.224	1.39	inactive
RESF1 (retroelement silencing factor 1)	2	2.02	17.2	inactive
RESF1 (retroelement silencing factor 1)	3	-0.606	-1.3	inactive
GPHN (gephyrin)	1	-0.566	-1.01	inactive
GPHN (gephyrin)	2	1.09	10.6	inactive
GPHN (gephyrin)	3	-0.825	-2.84	inactive
ZNF287 (zinc finger protein 287)	1	-0.339	0.581	inactive
ZNF287 (zinc finger protein 287)	2	0.403	5.8	inactive
ZNF287 (zinc finger protein 287)	3	0.654	7.57	inactive
SSC4D	1	0.624	7.36	inactive
SSC4D	2	-1.51	-7.65	inactive
SSC4D	3	9.52	69.9	active
LOC646865 (retired record)	1	-0.533	-0.785	inactive
LOC646865 (retired record)	2	0.318	5.2	inactive
LOC646865 (retired record)	3	-0.718	-2.09	inactive
PRPF3 (pre-mRNA processing factor 3)	1	-0.202	1.55	inactive
PRPF3 (pre-mRNA processing factor 3)	2	1.25	11.7	inactive
PRPF3 (pre-mRNA processing factor 3)	3	-0.342	0.562	inactive
KIF18B (kinesin family member 18B)	1	0.868	9.07	inactive
KIF18B (kinesin family member 18B)	2	2.76	22.4	inactive
KIF18B (kinesin family member 18B)	3	0.809	8.66	inactive
